# Laboratory results reported in PubChem BioAssay AID485314 (National Center for Advancing Translational Sciences (NCATS), 2010).
# “And” between values parts separate entries of the source, which are not always exact repeats. Equal entries are not always repeated. Hit rate of the full screen: of about 340,000 compounds, about 4,500 (1.3%) were called active. This list was built around the results that the source calls inconclusive (neither active nor inactive); the mix of calls is not that of the screen. Calls come from the whole dose curve; as a rule, active = well fitted inhibition curve with a large enough effect; inconclusive = small, poorly fitted or top-dose-only effect, or another doubt; inactive = no such curve, though single readings can be large or run the other way. Potencies of inconclusive entries are doubtful fits and often do not repeat.
# Target: DNA polymerase beta (Homo sapiens) (UniProt P06746)
# Assay: qHTS Assay for Inhibitors of DNA Polymerase Beta
# Conditions: Pol beta primer extension/strand displacement, fluorescence kinetic; activity change, negative = inhibition: at 114 µM (top of the series)
# Summary of the method: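 Preincubation: enzyme (10 nM) with compound, 15 min, RT. Reaction: substrate added to 50 nM final. Reads: 0 and 10 min. Analysis: normalized, Hill fit.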
# % is set by controls: 0 for no effect and ±100 for the full control effect; potency is the fitted concentration of half-maximal effect.
Structure (SMILES),Potency,"activity change, negative = inhibition"
Cc1ccc(-c2[nH]nc3c2C(c2cccnc2)C(C#N)=C(N)O3)cc1 (stereo not drawn),inactive,–
Cc1ccc(-c2nc3ncccc3o2)cc1NC(=O)COc1ccc(C(C)C)cc1,"inconclusive: 15.8 µM [inhibitor, single point]",–
O=C(CN1C(=O)c2ccccc2C1=O)NCC(=O)OCC(=O)c1cccc([N+](=O)[O-])c1,inactive,–
Cc1cc(=O)[nH]c(SCC(=O)Nc2ccc(S(N)(=O)=O)cc2)n1,"inconclusive: 14.1 µM [inhibitor, full curve]",–
CCN1CCN(C(=O)CCc2nnc(CCc3ccc(OC)cc3)o2)[C@@H](C)C1=O,"inconclusive: 100 µM [inhibitor, single point]",–
CCOC(=O)c1c(C)oc2ccc(NS(=O)(=O)c3ccc(C(=O)O)cc3)cc12,"inconclusive: 39.8 µM [inhibitor, partial curve]",–
COC(=O)c1sc(-c2ccc(Cl)cc2)cc1NC(=O)c1ccccc1C(=O)O,–,inconclusive: -71.6% [inhibitor]
Cc1cc(C)nc(NN2C(=O)/C(=C/c3ccc(O)cc3)SC2=S)n1,"inconclusive: 70.8 µM [inhibitor, partial curve]",–
N/C(=N\OC(=O)c1ccc(F)cc1)c1nonc1N,inactive,–
Cc1ccc(CNC(=O)c2nnn(CC(=O)Nc3cc(C)ccc3C)c2N)cc1,active: 7.94 µM,–
C/C(=N/NC(=O)C(=O)N/N=C(/C)c1ccccc1)c1ccccc1,"inconclusive: 79.4 µM [inhibitor, single point]",–
Cc1ccc(NC(=S)N2C3CCCC2CC(NC(=O)C2CC2)C3)cc1C (stereo not drawn),inactive,–
CC(=O)NCc1ccc(C(=O)CSc2nnc(-c3ccncc3)n2Cc2ccccc2)o1,active: 20 µM,–
O=[N+]([O-])c1cccc(-c2nnc(SCc3cccnc3)o2)c1,"inconclusive: 0.0891 µM [inhibitor, full curve]",–
COc1ccc([C@]23Cc4ccccc4C(O2)C2=C(O3)C(=O)c3ccccc3C2=O)cc1,"inconclusive: 15.8 µM [inhibitor, single point]",–
O=C(Nc1ccc2c(c1)OCO2)N1CCN(c2ncc(C(F)(F)F)cc2Cl)CC1,"inconclusive: 0.447 µM [inhibitor, full curve, poor fit]",–
Nc1cc(C(=O)OCC(=O)NCc2ccc(F)cc2)ccc1Cl,"inconclusive: 4.47 µM [inhibitor, single point]",–
O=C(COc1ccc(/C=N/NC(=O)c2ccccc2O)cc1)Nc1ccccc1,active: 17.8 µM,–
Cc1cc(C)cc(NC(=O)Cn2nnc(-c3nc(-c4ccncc4)no3)c2N)c1,"inconclusive: 89.1 µM [inhibitor, single point]",–
Cc1ccc(S(=O)(=O)NCCc2cn3ccsc3n2)cc1,"inconclusive: 89.1 µM [inhibitor, single point]",–
Cc1cc(C)c2c(n1)sc1c(O)cc(=O)[nH]c12,"inconclusive: 2.82 µM [inhibitor, full curve]",–
O=C(Nc1ccc2nc(SCC(=O)N3CCCc4ccccc43)sc2c1)c1ccccc1,"inconclusive: 89.1 µM [inhibitor, single point]",–
Cc1cc(N)n2ncc(-c3cccc(Br)c3)c2n1,"inconclusive: 79.4 µM [inhibitor, single point]",–

Structure (SMILES),Potency,"activity change, negative = inhibition"
COc1ccc(C)cc1NC(=O)CN1C(=O)c2cccc3cccc1c23,"inconclusive: 1.41 µM [inhibitor, full curve, poor fit]",–
Cc1nc(-c2ccccn2)sc1C(=O)Nc1ccc(Cl)c(Cl)c1,"inconclusive: 0.282 µM [inhibitor, full curve, poor fit]",–
Cc1ccc(-c2nnc(SCC(=O)NC(=O)Nc3ccc(C)cc3C)n2N)cc1,"inconclusive: 12.6 µM [inhibitor, partial curve]",–
COc1ccc(NC(=O)CCc2nnc3n(CC(C)C)c(=O)c4ccccc4n23)cc1,inactive,–
O=C(NCc1ccco1)c1ccc2c(c1)N(Cc1ccccc1)C(=O)CS2,"inconclusive: 50.1 µM [inhibitor, partial curve]",–
CCc1ccccc1NC(=O)C1CCCN(c2ncnc3onc(C)c23)C1 (stereo not drawn),inactive,–
CCC(C)(C)C(=O)Nc1cccc(Cl)c1C,"inconclusive: 35.5 µM [inhibitor, single point]",–
CC1Cc2nc(SCC(=O)NCc3ccco3)n(Cc3ccccc3)c(=O)c2S1 (stereo not drawn),"inconclusive: 25.1 µM [inhibitor, full curve]",–
CC1Sc2ccc(S(=O)(=O)N3CCC(C(=O)Nc4ccc(Cl)cc4)CC3)cc2NC1=O (stereo not drawn),"inconclusive: 50.1 µM [inhibitor, partial curve]",–
O=C(Nc1nc2ccccc2s1)c1ccc2c(c1)S(=O)(=O)c1ccccc1C2=O,"inconclusive: 79.4 µM [inhibitor, single point]",–
O=C(Nc1cccc(C(=O)OCc2cc(=O)n3c4c(sc3n2)CCCC4)c1)c1ccccc1,inactive,–
N#Cc1c(Nc2ccccc2)c(/C=N/NCCO)c[nH]c1=O,inactive,–
CN(CCCC1CCCC1)C(=O)c1cc(COc2c(F)cccc2F)on1,–,inconclusive: -32.1% [inhibitor]
CC(=O)c1cccc(NC(=O)N2CCCC2C(=O)NCc2ccc3c(c2)OCO3)c1 (stereo not drawn),"inconclusive: 79.4 µM [inhibitor, single point]",–
COc1cc(/C=C(\C#N)C(=O)Nc2cccc(C(=O)O)c2)ccc1OCc1ccc(F)cc1,active: 44.7 µM,–
CN1C2C=C(N(CCc3ccccc3)C(=O)c3ccc(Cl)cc3)CC1CC2 (stereo not drawn),"inconclusive: 89.1 µM [inhibitor, single point]",–
CCOc1ncccc1C(=O)NNC(=O)c1cccc(S(=O)(=O)Nc2ccc(OC)cc2)c1,inactive,–
Nc1nc2c(s1)COc1ccccc1-2,inactive,–
CCOC(=O)CSc1nc2cc(C(F)(F)F)cnc2n1C,"inconclusive: 3.16 µM [inhibitor, full curve, poor fit]",–
COc1ccc(-c2nc3n(c(=O)c2C#N)CCS3)cc1,"inconclusive: 79.4 µM [inhibitor, single point]",–
CCCCn1c(O)c(/C=C/C=C/C=Nc2ccccc2)sc1=S,"inconclusive: 20 µM [inhibitor, full curve]",–
CCOC(=O)c1c(C)n(C)c2ccc(OC(=O)c3ccc(N4C(=O)CCC4=O)cc3)cc12,"inconclusive: 44.7 µM [inhibitor, partial curve, poor fit]",–
O=C(Nc1ccc2oc(-c3ccncc3)nc2c1)c1ccc([N+](=O)[O-])o1,"inconclusive: 89.1 µM [inhibitor, single point]",–

# 3 entries already listed, arranged by number of heavy atoms, falling:
Structure (SMILES),Potency,"activity change, negative = inhibition"
COc1cc(/C=C(\C#N)C(=O)Nc2cccc(C(=O)O)c2)ccc1OCc1ccc(F)cc1,active: 44.7 µM,–
CC(=O)c1cccc(NC(=O)N2CCCC2C(=O)NCc2ccc3c(c2)OCO3)c1 (stereo not drawn),"inconclusive: 79.4 µM [inhibitor, single point]",–
CN(CCCC1CCCC1)C(=O)c1cc(COc2c(F)cccc2F)on1,–,inconclusive: -32.1% [inhibitor]

# Further compounds follow:

Structure (SMILES),Potency,"activity change, negative = inhibition"
Cc1ccc(-n2c(O)c(C=Nc3cc(C)on3)c3ccccc3c2=O)c(C)c1,"inconclusive: 39.8 µM [inhibitor, full curve, poor fit]",–
CC(C)(C)c1onc(OCP(=O)(O)O)c1CC(N)C(=O)O (stereo not drawn),inactive,–
COc1ccc(CCNC(=O)c2cc3c(=O)n4ccccc4nc3n(CCN3CCOCC3)c2=N)cc1,–,inconclusive: -43.9% [inhibitor]
Cc1ccccc1Cn1cccc1/C=C1/C(=N)N2C=CSC2=NC1=O,"inconclusive: 17.8 µM [inhibitor, partial curve]",–
Cc1ccc2c(CC(=O)NCCc3ccc(S(N)(=O)=O)cc3)coc2c1,–,inconclusive: -32.4% [inhibitor]
CCNc1ccc2c(Cl)cc(=O)oc2c1,"inconclusive: 39.8 µM [inhibitor, single point]",–
Cc1nc(Nc2cccc(C(C)O)c2)c2nnn(Cc3ccc(F)cc3)c2n1 (stereo not drawn),"inconclusive: 70.8 µM [inhibitor, single point]",–
CC1(CCc2ccccc2)NC(=O)N(Cc2cc([N+](=O)[O-])cc3c2OCOC3)C1=O (stereo not drawn),"inconclusive: 12.6 µM [inhibitor, partial curve]",–
Cc1ccc(C(=O)Nc2ccc(F)cc2)o1,"inconclusive: 22.4 µM [inhibitor, single point]",–
O=C(Nc1nnc(S(=O)(=O)N2CCCc3ccccc32)s1)c1ccccc1,"inconclusive: 89.1 µM [inhibitor, single point]",–
Cc1nc2ccccc2c2nc3ccccc3n12,"inconclusive: 12.6 µM [inhibitor, partial curve, poor fit]",–
N#Cc1cccc(NC(=O)c2cc3c(s2)-c2ccc(Cl)cc2SC3)c1,inactive,–
CCc1ccccc1NC(=O)c1cc(S(=O)(=O)N2CCCc3ccccc32)ccc1F,inactive,–
Cc1cccc(N2CCN(C(=O)CCn3c(=O)c4cccn4c4cccnc43)CC2)c1C,inactive,–
O=C(COc1ccccc1)Nc1cccc(-c2cn3cccnc3n2)c1,"inconclusive: 39.8 µM [inhibitor, partial curve] and inconclusive: 89.1 µM [inhibitor, single point]",–
O=C1C2=C(NC(=S)NC2c2ccc(Cl)cc2)NC(c2ccc(Cl)cc2)N1c1ccc(Cl)cc1 (stereo not drawn),inactive,–
O=C(O)CSc1cc(NS(=O)(=O)c2ccc(Cl)cc2)c2ccccc2c1O,active: 79.4 µM,–
Cc1cc2c(c(=O)o1)C(CCC1CCCCC1)C(C#N)=C(N)O2 (stereo not drawn),"inconclusive: 0.224 µM [inhibitor, full curve]",–
O=C(Nc1ccncc1)OCc1ccccc1,"inconclusive: 3.55 µM [inhibitor, single point]",–
CCc1ccc(NC(=O)CN(c2cccc(C)c2)S(C)(=O)=O)cc1,"inconclusive: 79.4 µM [inhibitor, partial curve]",–
COc1ccc(/C=N/n2c(-c3ccccc3)n[nH]c2=S)cc1,"inconclusive: 12.6 µM [inhibitor, partial curve]",–
CCOc1ccc(-c2cc(NC(=O)c3c(F)cccc3F)c(C(=O)O)s2)cc1,"inconclusive: 89.1 µM [inhibitor, single point]",–
